Results deposited as PubChem BioAssay AID686943 (Drosophila RNAi Screening Center, 2013)

Purpose: 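Search across the genome for regulators of signalling from receptor tyrosine kinase to ERK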 (primary screen)
System: Drosophila S2R+ haemocyte-like cells expressing YFP-tagged ERK (Rolled)
Reagents: long dsRNA against Drosophila genes
Treatment: insulin stimulation versus unstimulated cells; dose and duration not given
Measured: 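Antibody staining for doubly phosphorylated ERK divided by ERK-YFP signal, as plate z-scores, in insulin-treated and untreated cells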
Scale: replicate 1, z-score of dpERK with insulin and replicate 2, z-score of dpERK with insulin: higher = more active ERK per ERK-YFP after insulin
The screen tested about 23,000 reagents; below is an unselected part of those with a known target gene and a result. 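Extra replicates exist only for a retested subset of genes; insulin dose and duration not given; both raised and lowered dpERK matter.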 Further read-outs or replicates are left out here. Reagent sequences are not shown. Not given: the amount of reagent, the time to read-out.

What is on record for CG13562 [DRSC04200]?
replicate 1, z-score of dpERK with insulin: -0.31; replicate 2, z-score of dpERK with insulin: -0.35

With Cyp28d2 [DRSC03299], how do the results read?
replicate 1, z-score of dpERK with insulin: 1.93; replicate 2, z-score of dpERK with insulin: -0.37

For HP5 [DRSC19773], what does the deposit list?
replicate 1, z-score of dpERK with insulin: 1; replicate 2, z-score of dpERK with insulin: 0.49

What did the screen give for corolla [DRSC20102]?
replicate 1, z-score of dpERK with insulin: 0.48; replicate 2, z-score of dpERK with insulin: 0.88

For CG18480 [DRSC01957], what was measured?
replicate 1, z-score of dpERK with insulin: 1.11; replicate 2, z-score of dpERK with insulin: 0.24

For CG18789 [DRSC02696], what was measured?
replicate 1, z-score of dpERK with insulin: 0.8; replicate 2, z-score of dpERK with insulin: -0.82

With CG8204 [DRSC07106], how do the results read?
replicate 1, z-score of dpERK with insulin: 0.52; replicate 2, z-score of dpERK with insulin: 0.84

For Ir7b [DRSC18009], what does the deposit list?
replicate 1, z-score of dpERK with insulin: -1.1; replicate 2, z-score of dpERK with insulin: -0.9

How did the screen score l(1)G0289 [DRSC18215]?
replicate 1, z-score of dpERK with insulin: 1.89; replicate 2, z-score of dpERK with insulin: 0.84

With CG42855 [DRSC06161], what was measured?
replicate 1, z-score of dpERK with insulin: -0.23; replicate 2, z-score of dpERK with insulin: 0.7

An excerpt from above, reduced to “replicate 2, z-score of dpERK with insulin”:
HP5 [DRSC19773] = 0.49
corolla [DRSC20102] = 0.88
CG18480 [DRSC01957] = 0.24
CG18789 [DRSC02696] = -0.82

More records follow.
What is on record for CG2736 [DRSC04314]?
replicate 1, z-score of dpERK with insulin: 0.18; replicate 2, z-score of dpERK with insulin: -0.08

Which result is listed for Scm [DRSC16853]?
replicate 1, z-score of dpERK with insulin: 0.07; replicate 2, z-score of dpERK with insulin: -0.64

For pigeon [DRSC03565], how do the results read?
replicate 1, z-score of dpERK with insulin: -1.1; replicate 2, z-score of dpERK with insulin: -0.74

What did the screen give for Ocho [DRSC11239]?
replicate 1, z-score of dpERK with insulin: 0.67; replicate 2, z-score of dpERK with insulin: 0.17

For glo [DRSC16145], how do the results read?
replicate 1, z-score of dpERK with insulin: -1.91; replicate 2, z-score of dpERK with insulin: -1.2

With NfI [DRSC17158], how do the results read?
replicate 1, z-score of dpERK with insulin: 0.2; replicate 2, z-score of dpERK with insulin: -0.58

For Muc12Ea [DRSC19937], how do the results read?
replicate 1, z-score of dpERK with insulin: 0.57; replicate 2, z-score of dpERK with insulin: 0.74

What is on record for Tcs5 [DRSC09774]?
replicate 1, z-score of dpERK with insulin: 0.09; replicate 2, z-score of dpERK with insulin: 1.33

How did the screen score bigmax [DRSC15481]?
replicate 1, z-score of dpERK with insulin: 1.76; replicate 2, z-score of dpERK with insulin: -0.41

What did the screen give for Or24a [DRSC00768]?
replicate 1, z-score of dpERK with insulin: 0.21; replicate 2, z-score of dpERK with insulin: 0.24

For CG6614 [DRSC02974], what was measured?
replicate 1, z-score of dpERK with insulin: -0.04; replicate 2, z-score of dpERK with insulin: -0.16

With ERp60 [DRSC07309], how do the results read?
replicate 1, z-score of dpERK with insulin: 0.11; replicate 2, z-score of dpERK with insulin: 0.04

For Srx [DRSC20005], what does the deposit list?
replicate 1, z-score of dpERK with insulin: 0.16; replicate 2, z-score of dpERK with insulin: -0.04

With RN-tre [DRSC07521], what does the deposit list?
replicate 1, z-score of dpERK with insulin: -0.06; replicate 2, z-score of dpERK with insulin: -0.8

What did the screen give for Cortactin [DRSC16612]?
replicate 1, z-score of dpERK with insulin: -0.37; replicate 2, z-score of dpERK with insulin: 0.1

For Uch-L5 [DRSC11314], how do the results read?
replicate 1, z-score of dpERK with insulin: -1.09; replicate 2, z-score of dpERK with insulin: -0.1

What is on record for CG11723 [DRSC00324]?
replicate 1, z-score of dpERK with insulin: -0.01; replicate 2, z-score of dpERK with insulin: -0.75

With Gr58a [DRSC03910], what was measured?
replicate 1, z-score of dpERK with insulin: 0.04; replicate 2, z-score of dpERK with insulin: 0.86

For CG5681 [DRSC02876], how do the results read?
replicate 1, z-score of dpERK with insulin: 0.97; replicate 2, z-score of dpERK with insulin: 0.17

With Elal [DRSC16662], what was measured?
replicate 1, z-score of dpERK with insulin: -0.33; replicate 2, z-score of dpERK with insulin: 0.07

Which result is listed for ord [DRSC04706]?
replicate 1, z-score of dpERK with insulin: -0.03; replicate 2, z-score of dpERK with insulin: -0.12
